This note sets out measurements from patent US20130071854A1, “METHODS FOR THE IDENTIFICATION AND CHARACTERIZATION OF HDAC INTERACTING COMPOUNDS” (priority 2009, published 2013).

Where two headings read alike, the source gives them in different places.

In assay [1] the test system is MIER1. The assay can be described thus: Chemoproteomic binding profiling, K562 cell extract, SAHA/ITF2357 probe matrix (Kd app), ELSA (ELM-SANT) domain protein. On the set-up: species or system human. Particulars: ELSA (ELM-SANT) domain proteins.
Assay [2] deals with MIER3. The description is as above. Also on record: species or system human. To be noted: ELSA (ELM-SANT) domain proteins.
For assay [3], the system named is EHMT2. Put plainly: Chemoproteomic binding profiling, K562 cell extract, SAHA/ITF2357 probe matrix (Kd app), ELSA (ELM-SANT) domain proteins group. Also on record: species or system human. To be noted: protein EHMT2.
In assay [4] the test system is TBL1X. Particulars: K-562 cell lysate.
The subject of assay [5] is TBL1XR1.

As to `O=C(CCCCCCC(=O)Nc1ccccc1)NO` [SAHA, suberoylanilide hydroxamic acid], the Kd in assay [1] was 110 nM; in assay [2], 50 nM; in assay [3], 540 nM. Also, the IC50 was found to be 290 nM in assay [4]; 290 nM in assay [5] (K-562 cell lysate); 220 nM in assay [5] (mix of Jurkat and Ramos cell lysates).
